The nature of the data set: 52Mn labeling efficiency at different ligand concentrations (radio-TLC). As to conditions: 37 °C, 5 min.

For the molecule `O=C(O)CN1CCOCCN(CC(=O)O)Cc2cccc(n2)C1` [H23,9-OPC2A, 6-Oxa-3,9,15-triazabicyclo(9.3.1)pentadeca-1(15),11,13-triene-3,9-diacetic acid], the “ligand concentration for complete radiolabeling with ^52Mn” value worked out at 150 µM.

As for `O=C(O)CN1CCNCCN(CC(=O)O)Cc2cccc(n2)C1` [H23,9-PC2A, pyclen-3,9-diacetate], the “ligand concentration for complete radiolabeling with ^52Mn” value was 75 µM.
